Results: PubChem BioAssay AID624297 (National Center for Advancing Translational Sciences (NCATS), 2012)
Screen size: about 340,000 compounds; about 6,200 (1.8%) were called active. The inconclusive results got no clear call from the source; some entries with a clear call stand among them for comparison. The call rests on the fitted dose curve; in most records, active means well fitted activation curve with a large enough effect; inconclusive means small, poorly fitted or top-dose-only effect; inactive means no such curve, though single readings can be large or run the other way. Potencies of inconclusive entries are doubtful fits and often do not repeat.

Test: A quantitative high throughput screen for small molecules that induce DNA re-replication in SW480 colon adenocarcinoma cells. Further: nearly all actives have a fitted effect of over 55% in size. On re-replication activation: % of control where 0% means no effect.
Conditions: Hoechst DNA content imaging, 48 h; re-replication activation: at 46.1 µM (top of the series) unless noted
Summary of the method: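 Image-based read-out: total Hoechst fluorescence of nuclei (405 nm excitation, 500-530 nm emission), with hits raising the fraction of high-intensity nuclei. SW480 colon cells incubated 48 hr with compounds at 37 C.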
Potency means the concentration at half of the fitted maximal effect.

SMILES | Potency | re-replication activation
CCC(C)c1ccc2oc(-c3ccc(NC(=O)Cn4cnc5c(=O)n(C)c(=O)n(C)c54)cc3)nc2c1 (configuration not stated) | inconclusive: 20.6 µM [activator, partial curve, poor fit] | 
Cc1ccc(S(=O)(=O)CCC(=O)Nc2nnc(-c3ccc(F)cc3)o2)cc1 | inconclusive: 18.4 µM [activator, single point] | 
O=C(Nc1ccc(Cl)cc1)N1N=CCC1c1ccccc1 (configuration not stated) | inconclusive: 0.731 µM [activator, partial curve, poor fit] | 
O=C(Nc1nccs1)c1ccc(COc2ccccc2Cl)o1 | inconclusive: 16.4 µM [activator, partial curve, poor fit] | 
O=C(CN1CCN(c2ccc(F)cc2)CC1)Nc1cccnc1Cl | inconclusive: 20.6 µM [activator, single point] | 
O=C(NC1CCCCC1)c1cccc(N2C(=O)CCC2=O)c1 |  | inactive: 12.4%
COc1cc(-c2nc3ccccc3nc2-c2ccc(O)c(OC)c2)ccc1O |  | inactive: -6.73%
CCC1CCCCN1CCNC(=O)C1CCCN(S(=O)(=O)c2cccc3nsnc23)C1 (configuration not stated) | inconclusive: 23.1 µM [activator, partial curve, poor fit] | 
Cc1cc2n(n1)SC(Nc1cc(Cl)ccc1Cl)N2 (configuration not stated) | inconclusive: 20.6 µM [activator, single point] | 
COc1ccc2[nH]c3c(c2c1)CCN1C(=O)C(CC(=O)NCCCN(C)C)C[C@H](C(=O)N2CCCCC2)[C@@]31CCc1ccccc1 (some centres not stated) | inconclusive: 10.3 µM [activator, partial curve] | 
CCOC(=O)/C(C#N)=C1/C=CN(c2ccc(C)cc2)C=N1 | inconclusive: 18.4 µM [activator, single point] | 
COC1C=CC(CNC(=O)c2cc3c(=O)n4cccc(C)c4nc3n2C)(OC)O1 (configuration not stated) | inconclusive: 2.91 µM [activator, full curve, poor fit] | 
Cc1cccc(C(=O)Nc2ccc(C(=O)/C=C/c3cccs3)cc2)c1 | inconclusive: 20.6 µM [activator, single point] | 
O=C(N/N=C/C1=C(N2CCOCC2)C(=C\c2ccccc2)/CC1)Nc1ccccc1 | inconclusive: 9.2 µM [activator, partial curve, poor fit] | 
CCN(CC)CCN1CCn2c3c(c4cc(C)ccc42)CCCC31 (configuration not stated) | active: 14.6 µM | 
Cn1c(=O)c2c(ncn2CC(O)CNc2ccc(Br)cc2)n(C)c1=O (configuration not stated) |  | inactive: -9.32%
CC(C)(C)NCCC(O)c1cc(C(F)(F)F)nc2c(C(F)(F)F)cccc12 (configuration not stated) | inconclusive: 18.4 µM [activator, single point] | 
Cc1cccc(OCC(=O)Nc2ccccc2N2CCCCC2)c1C | inconclusive: 20.6 µM [activator, single point] | 
Cc1cc(=O)[nH]c(SCc2nc3ccccc3n2Cc2ccccc2)n1 | inconclusive: 29.1 µM [activator, single point] | 
CCOC(=O)C1CCCN(S(=O)(=O)c2cc3c(cc2Cl)NC(=O)CO3)C1 (configuration not stated) |  | inactive: 1.21%
O=C(CSc1ccc(F)cc1)Nc1nnc(-c2ccco2)o1 |  | inactive: -146%
CCOC(=O)c1ccc(Nc2nc(N)c3cc(OC)c(OC)cc3n2)cc1 | inconclusive: 16.4 µM [activator, partial curve, poor fit] | 
CCOC(=O)C1=CN(CC)S(=O)(=O)NC1c1cccc(OC)c1 (configuration not stated) |  | inactive: 3.84%

Random excerpt: 4 records from the list, in no set order.
SMILES | Potency | re-replication activation
Cc1cc(=O)[nH]c(SCc2nc3ccccc3n2Cc2ccccc2)n1 | inconclusive: 29.1 µM [activator, single point] | 
CCN(CC)CCN1CCn2c3c(c4cc(C)ccc42)CCCC31 (configuration not stated) | active: 14.6 µM | 
O=C(Nc1ccc(Cl)cc1)N1N=CCC1c1ccccc1 (configuration not stated) | inconclusive: 0.731 µM [activator, partial curve, poor fit] | 
COC1C=CC(CNC(=O)c2cc3c(=O)n4cccc(C)c4nc3n2C)(OC)O1 (configuration not stated) | inconclusive: 2.91 µM [activator, full curve, poor fit] | 

Next entries follow.

SMILES | Potency | re-replication activation
CCOC(=O)CNC(=O)C(CC(N)=O)NC(=O)OC(C)(C)C (configuration not stated) | inconclusive: 0.58 µM [activator, partial curve, poor fit] | 
CCOc1ccc(OCC)c(NC(=O)c2nnn(CC(=O)Nc3cc(C)cc(C)c3)c2N)c1 | inconclusive: 23.1 µM [activator, single point] | 
Cc1ccsc1/C=N/NC(=O)c1nnn(-c2nonc2N)c1-c1ccc2c(c1)OCO2 | inconclusive: 4.11 µM [activator, single point] | 
c1ccc(C2(CN3CCNC[C@H]3Cc3cccc4ccccc34)CC2)cc1 | inconclusive: 29.1 µM [activator, partial curve, poor fit] | 
FC(F)(F)c1cc(Oc2ccccc2)nc(-c2ccccn2)n1 | inconclusive: 18.4 µM [activator, partial curve, poor fit] | 
Cc1cccc(N2CCN(C(=O)N3CCOCC3)CC2)c1C | active: 16.4 µM | 
C[C@H](CO)N1C[C@H](C)[C@@H](CN(C)S(=O)(=O)c2cccs2)Oc2c(NC(=O)NC3CCCCC3)cccc2C1=O | inconclusive: 29.1 µM [activator, single point] | 
Cc1cnnn1-c1ccc(C(=O)CCl)cc1 | inconclusive: 29.1 µM [activator, single point] | 
Cc1cccc(CCNC(=O)Cn2ncc3c([nH]c4ccccc43)c2=O)c1 | inconclusive: 0.116 µM [activator, full curve, poor fit] | 
CCOc1ccccc1OCCCC(=O)N1CCN(S(=O)(=O)c2cccc(F)c2)CC1 |  | inactive: 0.859%
COc1ccccc1-c1nnc2n1N=C(c1ccc(OC(F)F)c(OCC3CC3)c1)CS2 | inconclusive: 29.1 µM [activator, single point] | 
COc1cc(OC)c(CN2CCc3c([nH]c4ccccc34)C2)cc1Br |  | inactive: -14.2%
Cc1cccc(NC(=O)c2cc(S(=O)(=O)N3CCCCC3)ccc2Cl)n1 | inconclusive: 29.1 µM [activator, single point] | 
CCc1nc(C)c(C(=O)N2CCCC(C(=O)Nc3cccc(-c4cccc(C)c4)c3)C2)o1 (configuration not stated) | inconclusive: 29.1 µM [activator, single point] | 
Nc1ccccc1C#CC(=O)c1ccccc1 | inconclusive: 4.11 µM [activator, full curve, poor fit] | 
CC(=O)N1c2ccc(S(=O)(=O)NCCC(=O)Nc3ccc(C)cn3)cc2CC1C (configuration not stated) | inconclusive: 1.16 µM [activator, partial curve, poor fit] | 
CSc1ccc(S(=O)(=O)NCC(=O)OCC(=O)N2CC(C)CC(C)C2)cc1[N+](=O)[O-] (configuration not stated) |  | inactive: 0.162%
O=C(NC1CCCCC1)NC1(C(=O)N2CCN3CCCC3C2)CCCCC1 (configuration not stated) | inconclusive: 2 µM [activator, partial curve] | 
CCN(CC(=O)Nc1ccc(OC)cc1)C(=O)c1oc2c(Cl)cccc2c1C |  | inactive: 41.1%
Cc1noc(C)c1CSCC(=O)Nc1ccc(S(=O)(=O)C(F)F)cc1 |  | inactive: -80.8%
C(=C\c1nc2ccccc2[nH]1)/c1ccccc1 | active: 14.6 µM | 
O=C(Cc1ccc(-n2c(=O)c3ccccc3n(CC(=O)Nc3ccc(F)cc3F)c2=O)cc1)NCc1ccco1 | inconclusive: 0.651 µM [activator, full curve] | 
Cc1cc(N/N=C/c2ccc(O)cc2O)nc(-n2nc(C)cc2C)n1 | inconclusive: 3.66 µM [activator, full curve] | 

SMILES | Potency | re-replication activation
Nc1ccccc1C(=O)NC(=O)Nc1ccc(Oc2ncc(Br)cn2)c(Cl)c1 | active: 0.517 µM | 
Cc1ccc[n+](C(C)C(=O)c2ccc(-c3ccccc3)cc2)c1 (configuration not stated) | inconclusive: 3.26 µM [activator, partial curve] | 
COc1cc(OC)c(S(=O)(=O)Nc2ccc(C(=O)O)cc2)cc1S(=O)(=O)Nc1ccc(C(=O)O)cc1 |  | inactive: -10.7%
Cc1ccc(CS(=O)Cc2ccc(C(=O)NCC(C)c3ccccc3)o2)cc1 (configuration not stated) | inconclusive: 0.146 µM [activator, full curve, poor fit] | 
CCCN(CCC)CCCNC(=O)c1cc2c(=O)n(CC)c3ccccc3c2s1 | inconclusive: 16.4 µM [activator, single point] | 
CC(=O)N1N=C(c2cccs2)CC1c1cccc([N+](=O)[O-])c1 (configuration not stated) | inconclusive: 0.92 µM [activator, single point] | 
Cc1cc(C)n(CCNC(=O)c2cc(COc3ccc4ncccc4c3)on2)n1 |  | inactive: -5.45%
COc1cc(C(=O)NCC2CCCO2)ccc1OCc1ccc(Cl)cc1Cl (configuration not stated) |  | inactive: -31.2%
CC(=O)/C=C(\C)Nc1ccccc1O | inconclusive: 23.1 µM [activator, single point] | 
CC(C)(C)c1ccc(OCC(=O)Nc2ccc(C(=O)Nc3ccccc3C(=O)O)cc2)cc1 |  | inactive: 1.29%
N#CC1=C(SCc2ccccc2)NC(=O)CC1c1cccc(O)c1 (configuration not stated) |  | inactive: -4.16%
O=C(Cc1ccc(S(=O)(=O)N2CCOCC2)s1)Nc1ccc(Br)c(C(F)(F)F)c1 | inconclusive: 18.4 µM [activator, single point] | 
CCN(CC)c1ccc(-c2n[nH]c(=S)n2-c2ccccc2)cc1 | inconclusive: 23.1 µM [activator, single point] | 
Cc1c(NS(=O)(=O)c2ccc(C(=O)NCc3ccc(F)cc3)cc2)c(=O)n(-c2ccccc2)n1C | inconclusive: 20.6 µM [activator, partial curve, poor fit] | 
CC(C)(C)c1cc(NC(=O)c2cccnc2)no1 |  | inactive: -4.1%
COC(=O)[C@@H]1C[C@@]2(O)[C@@H](O)[C@@H](O)[C@@H](O)C[C@H]2N1Cc1cc(OC)cc(OC)c1 | inconclusive: 1.16 µM [activator, single point] | 
O=C(N/N=C\c1cc(Cl)ccc1O)c1ccc(S(=O)(=O)N2CCCCC2)cc1 | active: 7.31 µM | 
Cc1cc(NC(=O)COC(=O)c2ccc(S(=O)(=O)N3CCCc4ccccc43)cc2)no1 | active: 14.6 µM | 
c1cc2c(cc1C1CCCCC1)c1c3n2CCN=C3CCC1 | active: 20.6 µM | 
CC(C)NCC(=O)Nc1c2c(nc3ccccc13)CCC2 |  | inactive: -3.56%
COc1ccccc1NC(=O)CNC(=O)CC12CC3CC(CC(C3)C1)C2 | inconclusive: 14.1 µM [activator, single point] | 
